Measurements from ChEMBL document CHEMBL3217667, “Extended side chain analogues of 8-aminoquinolines: Synthesis and evaluation of antiprotozoal, antimicrobial, -hematin inhibition, and cytotoxic activities” (Medchemcomm, 2011).
In brackets after ≈: the same amount, converted by molar mass.

System: Candida albicans
Assay: Antifungal activity against Candida albicans by broth microdilution assay
Type: functional, organism-based

## C[C@@H]1[C@H](O)[C@@H](C)/C=C/C=C/C=C/C=C/C=C/C=C/C=C/[C@H](O[C@@H]2O[C@H](C)[C@@H](O)[C@H](N)[C@@H]2O)C[C@@H]2O[C@](O)(C[C@@H](O)C[C@@H](O)[C@H](O)CC[C@@H](O)C[C@@H](O)CC(=O)O[C@H]1C)C[C@H](O)[C@H]2C(=O)O [AMPHOTERICIN B]
  MIC: 0.63 µg/mL (≈ 0.682 µM)
